Test results as given in patent publication US7723023B2, “Use of intrinsic reporters of cell signaling for high content drug profiling and toxicity screening” (Mount Sinai School of Medicine, priority 2001, dated 2010).
At least one compound was matched to its structure with a doubt left.

What was measured:
[1] = test system: PC12 cells that stably express the dopamine D2 receptor; conditions: PC12-D2R cells, 200 μM H2O2
[2] = test system: PC12 cells that stably express the dopamine D2 receptor; conditions: PC12-D2R cells, 200 μM H2O2; remark: listed apart in the source

CC(C)C[C@H]1C(=O)N2CCC[C@H]2[C@]2(O)O[C@](NC(=O)[C@@H]3C=C4c5cccc6[nH]c(Br)c(c56)C[C@H]4N(C)C3)(C(C)C)C(=O)N12 [Bromocriptine]
Protection of cells against induced cell death [1]: protects the cells | Effect on three early genes induced by H2O2 [2]: causes a suppression
